# Results taken from the supplement of paper PMC5949888.
# Most values lie at the floor of the assay. Slopes are relative: functional sequences can read slightly below zero.
# System: Saccharomyces cerevisiae PS128 hsf1 delta, HSF1(1-493) fusion
# Assay: growth estimate (transactivation domain function in HSF1 fusion, heat-shock survival) (a.u. (slope of normalised read count over time)); higher = stronger growth at 37°C, i.e. more transactivation activity
# Conditions: library: random library
# Experimental: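 Random 60-nt DNA library encoding peptides of up to 20 aa, fused to the C-terminus of yeast HSF1 residues 1-493 (C-terminal TAD deleted) and expressed from the native HSF1 promoter on a CEN plasmid in hsf1-deleted S. cerevisiae PS128. Cells were selected at 37°C on -trp 5-FOA plates for 0, 2, 4, 6 and 8 days and amplicons were sequenced. Growth estimate is the slope of a robust linear fit of total-sum-normalised read counts (normalised to the first time point) over time, using at least 2 replicates. Sequences are classed functional (TAD activity) above a threshold of -0.13, set from stop-codon control sequences.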
row,Substance,growth estimate
1,DTTSGKNADDMTCATERACG,< -0.25
2,DTVPDPA,< -0.25
3,DTVSRRFEGFGYGFLAQIPT,< -0.25
4,DTYGRGSAIGSSQEGV,< -0.25
5,DVARVAYWWDTWQT,-0.194
6,DVCEPKLYIRFDLTKLR,< -0.25
7,DVCGADKRAKIDVHIGVWSV,0.021
8,DVCSDSCHSKGIRAGIITTQ,< -0.25
9,DVDAHRFCSVGLNGYRMISV,< -0.25
10,DVEELDTDAVAATGSSARGS,< -0.25
11,DVGCDASPNRAHVRLA,< -0.25
12,DVIK,< -0.25
13,DVIMPVAPMGVVLVQNLRTQ,< -0.25
14,DVLA,< -0.25
15,DVLHK,< -0.25
16,DVLSEGYGAISFNRFTPRRT,< -0.25
17,DVLTH,< -0.25
18,DVP,< -0.25
19,DVPLRGCRYGRIMVVPGLPT,< -0.25
20,DVQTGRYMRMPLLCVTSLLS,< -0.25
21,DVRTRGAC,< -0.25
22,DVRYDGPYYHRQKVRL,< -0.25
23,DVSETPLVSTQ,-0.245
24,DVSFRSDTP,< -0.25
25,DVSILSFSCRAGCN,< -0.25

# No new results follow: entries from further up.
row,Substance,growth estimate
18,DVP,< -0.25
19,DVPLRGCRYGRIMVVPGLPT,< -0.25

# Copied from the list.
# DVLA | growth estimate: < -0.25
# DVSILSFSCRAGCN | growth estimate: < -0.25
# DVPLRGCRYGRIMVVPGLPT | growth estimate: < -0.25

# More records follow:

row,Substance,growth estimate
1,DVSLLPEQARCGTQNL,< -0.25
2,DVTSRRIEKVLRIRHSVYFS,< -0.25
3,DVYNFNVKDHIGVLVGHEAA,< -0.25
4,DWAVAKEKEP,< -0.25
5,DWCLG,< -0.25
6,DWFIDYYRE,0.0722
7,DWGQCTVHMRCSETTESACR,< -0.25
8,DWGTVVV,< -0.25
9,DWLSRGDSLR,< -0.25
10,DWQSGR,< -0.25
11,DWVWRTYHSRLYGDR,< -0.25
12,DYEELDFSVYEAEIVSGN,2.4
13,DYESRGFSRQ,< -0.25
14,DYLVYTNMGTTNVHYRSGAL,< -0.25
15,DYPPNDSTIVWGRKSHRLIL,< -0.25
16,DYRTS,< -0.25
17,EADV,< -0.25
18,EADWPGDPGQLYCLRSIPMP,< -0.25
19,EAELCRTPLHEV,< -0.25
20,EAFSGMPNHCTIYSSLQPGI,< -0.25
21,EAGCSPTRSLWGR,< -0.25
22,EAGTGVQTHYALPGILHP,< -0.25
23,EAHCRPGFWYLTSGGKLSL,< -0.25
24,EAHVLTNIPFG,< -0.25
25,EAICV,< -0.25

row,Substance,growth estimate
1,EAIREDGRELLAFRHCPRTA,< -0.25
2,EALSRHT,-0.182
3,EANDRNGGPTGLASN,< -0.25
4,EANQAVEHDGGSWIPHLFRT,< -0.25
5,EAR,< -0.25
6,EARCTPRRKTVGGVRP,< -0.25
7,EARLGPSITPWVRLRSARVP,< -0.25
8,EASVQEGGTISITVRSGD,< -0.25
9,EATRERRSRYEQGHDFR,< -0.25
10,EAYRAAGWPGSEGHEGRRNP,< -0.25
11,EAYRVNLRVSQSIKKSHFER,< -0.25
12,ECA,< -0.25
13,ECAARAPPG,< -0.25
14,ECCQLLR,< -0.25
15,ECDQRLEKKGHSKSLRAFLF,< -0.25
16,ECFIVDAERYWPMASKVTAG,< -0.25
17,ECGSRRVRSSGDI,< -0.25
18,ECKIMRIYEGRSVSAHLGER,< -0.25
19,ECKLRGLDCAPGFKQSLRVF,< -0.25
20,ECLFRHNVTGWHVQSSGIFG,< -0.25
21,ECLVEE,< -0.25
22,ECSPAGGVVVALALKSQPLS,< -0.25
23,ECVRPHRGVAYTNQLFLALR,< -0.25
